According to patent publication US9861706B2 (priority 2011, dated 2018):
Several values for one entry are separate records, joined by “and”; a condition that tells them apart may be missing. Equal values may be shown once.

Assay: general procedure: Fmoc solid-phase peptide synthesis; TentaGel S Ram resin (1 g; 0.25 mmol/g)
Details: analytical HPLC and MS

[Cys16(Biotin-Mal),Leu14]Exendin-4(1-28)-8Ado-8Ado-[Leu4]Gastrin6
final HPLC purity (conjugation step): 84% pure

H-HGEGTFTSDLSKQLE-C(Biotin-Mal)-EAVRLFIEWLKN-8Ado-8Ado-YGWLDF-NH2
final HPLC purity (purification step, run 1): 91% pure
final HPLC purity (purification step, run 2): 73% pure and 62% pure
final HPLC purity (purification step, run 3): 90% pure
final HPLC purity (whole synthesis, run 1): 68% pure
final HPLC purity (whole synthesis, run 2): 74% pure

[Leu14,Lys25(Hexadecanoyl-isoGlu)]Exendin-4(1-28)-8Ado-8Ado-[Leu4]Gastrin6
final HPLC purity (whole synthesis): 81% pure

[Glu9,Leu14,Phe25,Tyr13]Exendin-4(1-27)-QQ-[Leu4]Gastrin6
final HPLC purity (whole synthesis): 78% pure
